Read-outs that look alike come from different tables or passages of the source.
Settings: aqueous, 25 °C ± 0.1 °C, n=3

CN(C)CCOC(c1ccccc1)c1ccccc1.Cn1c(=O)c2[nH]c(Cl)nc2n(C)c1=O [DMH, 2-benzhydryloxy-N,N-dimethylethanamine; 8-chloro-1,3-dimethyl-7H-purine-2,6-dione]
SCD, concentration of DMH in CD solution (β-CD 4.40 mmol/L): 17.35 mmol/L | SCD, concentration of DMH in CD solution (β-CD 7.49 mmol/L): 19.12 mmol/L | SCD, concentration of DMH in CD solution (β-CD 8.81 mmol/L): 19.93 mmol/L | SCD, concentration of DMH in CD solution (β-CD 10.57 mmol/L): 21.42 mmol/L | SCD, concentration of DMH in CD solution (β-CD 13.21 mmol/L): 22.85 mmol/L | SCD, concentration of DMH in CD solution (β-CD 15.86 mmol/L): 25.27 mmol/L | SCD, concentration of DMH in CD solution (β-CD 17.62 mmol/L): 26.68 mmol/L | SCD, concentration of DMH in CD solution (β-CD 22.03 mmol/L): 31.15 mmol/L

Reference: article PMC11496845, “Preparation, characterization, and in vitro cytogenotoxic evaluation of a novel dimenhydrinate-β-cyclodextrin inclusion complex” (Biomolecules and Biomedicine, 2024)
